This is an account of results in paper PMC6305444, “Advancement of the 5-Amino-1-(Carbamoylmethyl)-1H-1,2,3-Triazole-4-Carboxamide Scaffold to Disarm the Bacterial SOS Response” (Frontiers in Microbiology, 2018).

The data set concerns recA promoter GFP reporter (SOS response). The experiment in a line: Cell-based SOS reporter assay (GFP under recA promoter, ciprofloxacin-induced). The following applies: E. coli MG1655 ΔsulA ΔtolC, flow cytometry. The procedure: An E. coli MG1655 strain lacking sulA (ΔsulA) and the tolC transporter (ΔtolC) ([Mo et al., 2016]) was transformed with a reporter plasmid in which gfp expression was under the control of the recA promoter (pMS201 pRecA GFP) ([Zaslaver et al., 2006]). To perform assays overnight, cultures of the reporter strain were diluted 100-fold in M9 minimal media and grown at 37°C with agitation to an OD595 of ∼0.6. For each reaction sample 100 μL of culture were mixed with 100 μL of M9 minimal media containing ciprofloxacin (256 ng/mL). Pre-diluted compounds were added (5 μL) in DMSO and cultures were incubated at 37°C with agitation for 2 h after which the cells were fixed by adding 200 μL of phosphate buffered saline, pH 7.4 containing 1% paraformaldehyde. After 1 h of fixing, the cells were spun down at 4,000 rpm and re-suspended in phosphate buffered saline, pH 7.4. Fixed cells were analyzed using flow cytometry (BD FACSCalibur, Ex/Em: 488 nm/530 nm) and the mean fluorescence of 20,000 cells in each condition was recorded.
In general terms: Reporter assays use an easily measured gene product as a stand-in for the process of interest.

Entries after “also recorded” stand apart in the source; their conditions may differ.

For the compound `CCOc1ccc(NC(=O)Cn2nnc(C(=O)Nc3ccccc3)c2N)cc1` [Compound 14, 5-amino-1-{2-[(4-ethoxyphenyl)amino]-2-oxoethyl}-N-phenyl-1H-1,2,3-triazole-4-carboxamide], the “effect on cell size (side-scatter)” value is recorded as “not impacted; also recorded: without impacting cell size”.
